Publication PMC12646010
These are yes or no findings as the source states them, for the method shown. In cells and extracts the contact can be indirect. Sequences can lack the tags named with a protein.

Chains of the proteins cited; added tags and fusions are not shown.
UniProt P49715: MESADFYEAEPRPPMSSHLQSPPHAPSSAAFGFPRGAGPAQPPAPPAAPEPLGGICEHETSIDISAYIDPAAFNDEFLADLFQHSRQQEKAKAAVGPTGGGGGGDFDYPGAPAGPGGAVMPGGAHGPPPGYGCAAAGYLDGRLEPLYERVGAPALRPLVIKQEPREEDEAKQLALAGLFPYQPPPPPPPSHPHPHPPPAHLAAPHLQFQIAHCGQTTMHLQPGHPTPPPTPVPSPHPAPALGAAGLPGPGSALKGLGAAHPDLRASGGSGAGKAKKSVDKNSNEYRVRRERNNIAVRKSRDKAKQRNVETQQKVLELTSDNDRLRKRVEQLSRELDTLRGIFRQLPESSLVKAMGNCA

Biological target: Myc-tagged C/EBPα (CCAAT-enhancer-binding protein alpha) (UniProt P49715)
Assay: co-IP; HepG2 cells co-transfected with Myc-C/EBPα plus FLAG-IFI27 or control vector for 48 h, then DMSO or 5 µM MG132 for 24 h; whole-cell lysates (1% NP-40, 10% glycerol, 2 mM EDTA, 50 mM Tris-HCl pH 7.0, 150 mM NaCl) immunoprecipitated with anti-Myc-tag antibody (legend; methods name anti-C/EBPα antibody), protein A/G beads, 4°C; Western blot for ubiquitin, Myc-tag and FLAG-tag

- binding: no binding
B1: Interferon alpha-inducible protein 27 (IFI27), N-terminally FLAG-tagged (protein, UniProt P40305 34-122)
chain: ATVVIGGVVAMAAVPMVLSAMGFTAAGIASSSIAAKMMSAAAIANGGGVASGSLVATLQSLGATGLSGLTKFILGSIGSAIAAVIARFY
